Laboratory results as given in the supplement of paper PMC10338343.
± gives the standard deviation. This is a selection; strong and weak results do not stand in their true shares. Many of these values have a large error. The list shows a part of the results.

Assays:
[1] = test system: MILI (PIWIL2) piRISC loaded with L1MC piRNA (26 nt); test: pre-steady-state target cleavage rate (min^-1); higher = faster piRNA-guided slicing of the target; settings: guide: L1MC piRNA 5'p-UAACUAAAUACUAUGCAAGCUGUAGG
In short: (§1)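 Active affinity-purified piRISC (1 nM) loaded with one synthetic guide was mixed with a transcribed, DNA-blocked target RNA library (0.1 nM), with or without 500 nM GTSF1 partner protein, in HEPES–potassium acetate buffer at 33 °C for 0–8 or 0–960 min. Uncleaved targets were sequenced, normalised to depth and to weakly complementary targets, and pooled across three trials, with k3 capped at 0.0001 min^-1. The pre-steady-state cleavage rate was determined with a burst-and-steady-state fit.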

[2] = test system: EfPiwi piRISC loaded with L1MC piRNA (26 nt); test: pre-steady-state target cleavage rate (min^-1); guide: L1MC piRNA 5'p-UAACUAAAUACUAUGCAAGCUGUAGG; MIWI and MILI are mouse PIWI proteins and EfPiwi is from a freshwater sponge; tags in brackets are library labels; higher = faster piRNA-guided slicing of the target
In short: as §1

[3] = auxiliary factor: none (no GTSF1)
[4] = auxiliary factor: 500 nM Ephydatia muelleri Gtsf1
[5] = auxiliary factor: none (no Gtsf1)
[6] = auxiliary factor: 500 nM mouse GTSF1

Sequence	pre-steady-state target cleavage rate [1, 3]	pre-steady-state target cleavage rate [2, 4]	pre-steady-state target cleavage rate [2, 5]	pre-steady-state target cleavage rate [1, 6]
UCCUGGAACUGCUUGCAUACUAUUUAGUUA	0.00252 ± 0.0029	0.0046 ± 0.0019	0.000938 ± 0.0098	
UCCUGCUACAGCUUGCAUACUAUUUAGUAA	0.00108 ± 0.0065	0.00476 ± 0.0026	0.000519 ± 0.014	
UCCUGGAACACCUUGCAUAGUAUAUAGUUA	0.00209 ± 0.0029	0.0051 ± 0.0035	0.000989 ± 0.013	
UCCUGGUACAGCUUGCAUAGGAUUUAGUUA	0.00231 ± 0.0037	0.00178 ± 0.0033	0.000541 ± 0.016	
UCCUGCUACAGCUUGCAUAAUAUUUAGUUA		0.00444 ± 0.0021	0.000364 ± 0.016	0.363 ± 0.034
UCCUGGAACAGCUUGGAUAGAAUUUAGUUA	0.00241 ± 0.003	0.00165 ± 0.0029	0.000159 ± 0.021	
UCCUGCUUGAGCUUGCAUAGUAUUUUCAAA	0.000819 ± 0.007	0.00207 ± 0.0018	0.000229 ± 0.031	
UCCUGGAUGUCGAUGCAUAGUAUUCAGUUA	0.0013 ± 0.0048	0.00199 ± 0.0056	< 0.0001	
UCCUCCUACAGCUUGGAUACUAUUUAGUUA	0.0021 ± 0.0025	0.0118 ± 0.0031	0.00497 ± 0.0037	
UCCUGGAACAGCUUGCAUAGUAUAUAGUAA	0.003 ± 0.0032	0.00251 ± 0.0017	0.000705 ± 0.012	
UCCUGGAUGUGCUUGCAUACUAUAUAGUUA	0.000909 ± 0.0079	0.000795 ± 0.0056	0.00025 ± 0.042	
UCCUCCUACAGCUUGGAUAGAAUUUAGUUA	0.00181 ± 0.0034	0.00574 ± 0.0016	0.00128 ± 0.0054	
UCCUCCUACAGCUUGCAUAGAAUAUAGUUA	0.00122 ± 0.0043	0.00306 ± 0.0031	0.000829 ± 0.0083	
UCCUGGUACAGCUUGCAUAGUAUUUUCUUA	0.0021 ± 0.0048	0.00532 ± 0.0034	0.000517 ± 0.038	
UCCUGCUACAGCUUGCAUAGUAUAAUGUUA	0.00224 ± 0.0033	0.00304 ± 0.002	0.000253 ± 0.029	
UCCUGGAUGACCUUGCAUAGUAUUUACAAA	0.00132 ± 0.0077	0.00077 ± 0.0055	0.000751 ± 0.013	
UCCUGGUACAGCUUGCAUAGUAUUAUCUUA	0.00201 ± 0.0041	0.00167 ± 0.0021	0.000581 ± 0.014	
UCCUGGAACAGCUUGCAAACUAUUUAGUUA	0.00144 ± 0.0043	0.00228 ± 0.0037	0.000768 ± 0.011	
UCCUGGAUGUCGAAGCAUAGUAAUUAGUUA	0.00205 ± 0.003	0.00193 ± 0.0044	0.000202 ± 0.029	
UCCUGGAACAGCUUGCAUACAAUUUUCAAA	0.000201 ± 0.014	0.000476 ± 0.0083	0.000529 ± 0.014	
UCCUGGUACUGCUUGCAUAGAAUUUAGUUA	0.00194 ± 0.0065	0.0019 ± 0.0026	0.000299 ± 0.025	
UCCUGCUACUGCUUGCAUAGUAUUUACAAA	0.00101 ± 0.0061	0.00262 ± 0.0024	0.000317 ± 0.016	
UCCUGGAUCAGCUUGCAUAGGAUUUAGUUA	0.00157 ± 0.0037	0.0025 ± 0.0024	0.000538 ± 0.013	
UCCUGGAACAGCUUGCAUAGUAUAAAGUAA	0.00168 ± 0.0043	0.00132 ± 0.0037	0.000356 ± 0.028	
UCCUGGAUGUGCUUGCAUAGUAUUUAGUGA	0.00336 ± 0.0035	0.00187 ± 0.0035	0.000547 ± 0.016	
UCCUGGAUGUCGAAGCAUAGUAUAUAGUAA	0.00037 ± 0.015	0.000351 ± 0.0094	0.000195 ± 0.04	
UCCUGGUACAGCUUGCAAAGUAUUUAGUAA	0.00289 ± 0.0032	0.00304 ± 0.0024	0.00117 ± 0.0077	

Whole records, quoted from the list.
UCCUGGUACUGCUUGCAUAGAAUUUAGUUA as listed: pre-steady-state target cleavage rate [1, 3] = 0.00194 ± 0.0065; pre-steady-state target cleavage rate [2, 4] = 0.0019 ± 0.0026; pre-steady-state target cleavage rate [2, 5] = 0.000299 ± 0.025
UCCUGGAACUGCUUGCAUACUAUUUAGUUA as listed: pre-steady-state target cleavage rate [1, 3] = 0.00252 ± 0.0029; pre-steady-state target cleavage rate [2, 4] = 0.0046 ± 0.0019; pre-steady-state target cleavage rate [2, 5] = 0.000938 ± 0.0098

The results go on:

Sequence	pre-steady-state target cleavage rate [1, 3]	pre-steady-state target cleavage rate [2, 4]	pre-steady-state target cleavage rate [2, 5]	pre-steady-state target cleavage rate [1, 6]
UCCUCCUACAGCUUGCAUAGUAUUUAGAAA	0.00239 ± 0.0035	0.00581 ± 0.0024	0.000846 ± 0.0079	
UCCUGGUACAGCUUGCAUAGUAUAAAGUAA	0.0017 ± 0.0048	0.00243 ± 0.0022	0.000368 ± 0.027	
UCCUGGUACACCUUGCAUAGUAUUUUGUUA	0.00349 ± 0.0043	0.00266 ± 0.0029	0.000462 ± 0.027	
UCCUGGAUGAGCUUGCAUAGAAUUUAGAAA	0.000693 ± 0.0089	0.00122 ± 0.0032	0.000456 ± 0.013	
UCCUCGUACAGCUUCCAUAGUAUUUAGUUA	0.00135 ± 0.0039	0.00339 ± 0.0014	0.000299 ± 0.014	
UCCUGGUACAGCUUGCAUAGUUAAUUCAAA	0.00215 ± 0.0039	0.000552 ± 0.012	0.000418 ± 0.029	
UCCUGCAACAGCAUGCAUAGUAUUUAGUUA		0.0232 ± 0.0055	0.00137 ± 0.006	0.329 ± 0.023
UCCUGCUACACGAUGCAUAGUAUUUUCAAA	0.000586 ± 0.01	0.00241 ± 0.0034	0.000212 ± 0.033	
UCCUGCUAGAGCUUGCAUAGUAUUUAGUAA	0.00257 ± 0.0029	0.00419 ± 0.0014	0.00037 ± 0.014	
UCCUCCUACAGCUUGCAUAGAAUUUACUUA	0.000889 ± 0.005	0.00178 ± 0.0026	0.000188 ± 0.022	
UCCUGGAACAGCUACCAUAGUAUUUACAAA	0.000328 ± 0.02	0.000389 ± 0.014	0.000117 ± 0.043	
UCCUGGUACAGCUUGGCAUAGUAUUUAGUUA				0.4 ± 0.093
UCCUCCUACAGCUUGCAUAGUAUUCUAGUUA				0.316 ± 0.039
UCCUGCUACAGCUUGCAUAGAAUAUAGUUA	0.00128 ± 0.0043	0.00332 ± 0.0022	0.000392 ± 0.015	
UCCUCCUACAGCUAGCAUAGAAUUUAGUUA	0.00134 ± 0.0042	0.00325 ± 0.0019	0.00079 ± 0.0069	
UCCUGGAUGUGCUUGCUUAGUAUUUAGAUA	0.00296 ± 0.0032	0.000721 ± 0.0056	0.000129 ± 0.043	
UCCUGCUACAGCUUGCAUAGUAUUUAGUA	0.00209 ± 0.0033	0.00529 ± 0.0019	0.000582 ± 0.01	0.335 ± 0.07
UCCUGGAUGAGCUUGCAUAGUAUUUACUAA	0.000912 ± 0.0073	0.00198 ± 0.002	0.000465 ± 0.016	0.00674 ± 0.0044
UCCUGGAUGAGCUUGCAUAGUAAAUAGUUA	0.00227 ± 0.0033	0.00329 ± 0.0025	0.00114 ± 0.0096	
UCCUGGAUGUGCUUGGAUAGUAUUUUGUUA	0.00222 ± 0.0039	0.000565 ± 0.0056	0.000332 ± 0.039	
UCCUGGAUGUCCAUGCAAAGUAUUUAGUUA	0.00172 ± 0.005	0.000358 ± 0.0072	0.000114 ± 0.034	0.0101 ± 0.0043
UCCUGGUACAGCUUGGAUAGUAUUUACUUA	0.00107 ± 0.0078	0.000749 ± 0.0047	0.000338 ± 0.02	
UCCUCCUACAGGUUGCAUAGAAUUUAGUUA	0.00186 ± 0.0031	0.0062 ± 0.0014	0.00268 ± 0.004	
UCCUGGUACAGCAUGCAUAGUAUUAAGUUA		0.00442 ± 0.002	0.000506 ± 0.018	0.292 ± 0.06
UCCUCCUUCAGCUUGCAUAGAAUUUAGUUA	0.00196 ± 0.0029	0.00469 ± 0.0021	0.000985 ± 0.0058	
UCCUGGAACACCUUGCAUAGUAUUUAGAUA	0.00259 ± 0.003	0.0026 ± 0.0026	0.000475 ± 0.013	
